Data published in article PMC5675994.
These are yes or no findings as the source states them, for the method shown. In cells and extracts the contact can be indirect. A yes stands for co-enrichment or nearness to the bait. Other partners may have been found. For some assays here: Sequences can lack the tags named with a protein. Blank lines part the entries; values can stand above or below the binder they belong to.

Chains of the proteins cited; added tags and fusions are not shown. Lines headed by an entry give the natural chain unless they say otherwise; changes in a name come on top.
UniProt Q07540: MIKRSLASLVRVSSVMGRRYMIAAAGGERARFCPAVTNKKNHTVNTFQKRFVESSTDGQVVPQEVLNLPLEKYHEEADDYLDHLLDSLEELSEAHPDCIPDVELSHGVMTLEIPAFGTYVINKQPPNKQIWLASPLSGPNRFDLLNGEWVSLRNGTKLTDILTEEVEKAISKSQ

Tests used:
[1] = target: T1, Nfs1-His6 (S. cerevisiae) (UniProt P25374); test: affinity purification with mass spectrometry; Nfs1-His6 held on Ni-NTA superflow agarose from sonicated, cleared lysate of isolated mitochondria of the Gal-Nfs1-His6 yeast strain; 50 mM TrisCl pH 7.5, 80 mM KCl, 10% glycerol, wash 40 mM imidazole, elution 400 mM imidazole; eluate analysed by LC-MS/MS
T1 sequence: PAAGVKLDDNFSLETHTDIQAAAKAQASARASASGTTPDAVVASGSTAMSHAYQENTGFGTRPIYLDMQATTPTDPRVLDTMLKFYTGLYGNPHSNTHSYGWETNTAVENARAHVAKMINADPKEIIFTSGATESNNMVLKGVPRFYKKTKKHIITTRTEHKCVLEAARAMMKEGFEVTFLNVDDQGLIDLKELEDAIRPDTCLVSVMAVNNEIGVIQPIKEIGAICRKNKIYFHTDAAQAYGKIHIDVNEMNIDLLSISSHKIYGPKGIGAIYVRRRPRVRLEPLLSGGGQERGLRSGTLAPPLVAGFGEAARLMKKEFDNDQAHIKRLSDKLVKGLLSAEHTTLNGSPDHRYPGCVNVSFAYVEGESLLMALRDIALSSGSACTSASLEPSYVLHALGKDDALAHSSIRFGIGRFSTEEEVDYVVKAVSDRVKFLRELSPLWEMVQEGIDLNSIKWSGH

[2] = target: Yfh1-His6 (S. cerevisiae) (UniProt Q07540); test: affinity purification with mass spectrometry; Yfh1-His6 held on Ni-NTA superflow agarose from French-press lysate (108,000xg supernatant) of isolated mitochondria of the Yfh1-His6 yeast strain; 50 mM TrisCl pH 7.5, 80 mM KCl, 10% glycerol, wash 40 mM imidazole with 0.1% Triton X-100, elution 400 mM imidazole; eluate analysed by LC-MS/MS

B1: GTP cyclohydrolase 1 (protein, UniProt P51601 1-243)
chain: MHNIQLVQEIERHETPLNIRPTSPYTLNPPVERDGFSWPSVGTRQRAEETEEEEKERIQRISGAIKTILTELGEDVNREGLLDTPQRYAKAMLYFTKGYQTNIMDDVIKNAVFEEDHDEMVIVRDIEIYSLCEHHLVPFFGKVHIGYIPNKKVIGLSKLARLAEMYARRLQVQERLTKQIAMALSDILKPLGVAVVMEASHMCMVSRGIQKTGSSTVTSCMLGGFRAHKTREEFLTLLGRRSI
- binding [1]: binds
- binding [2]: binds

B2: Cytochrome b-c1 complex subunit 1, mitochondrial (protein, UniProt P07256 27-457)
chain: AEVTQLSNGIVVATEHNPSAHTASVGVVFGSGAANENPYNNGVSNLWKNIFLSKENSAVAAKEGLALSSNISRDFQSYIVSSLPGSTDKSLDFLNQSFIQQKANLLSSSNFEATKKSVLKQVQDFEENDHPNRVLEHLHSTAFQNTPLSLPTRGTLESLENLVVADLESFANNHFLNSNAVVVGTGNIKHEDLVNSIESKNLSLQTGTKPVLKKKAAFLGSEVRLRDDTLPKAWISLAVEGEPVNSPNYFVAKLAAQIFGSYNAFEPASRLQGIKLLDNIQEYQLCDNFNHFSLSYKDSGLWGFSTATRNVTMIDDLIHFTLKQWNRLTISVTDTEVERAKSLLKLQLGQLYESGNPVNDANLLGAEVLIKGSKLSLGEAFKKIDAITVKDVKAWAGKRLWDQDIAIAGTGQIEGLLDYMRIRSDMSMMRW
- binding [1]: binds
- binding [2]: binds

B5: Protein MMF1, mitochondrial (protein, UniProt P40185 18-145)
chain: ITTLTPVSTKLAPPAAASYSQAMKANNFVYVSGQIPYTPDNKPVQGSISEKAEQVFQNVKNILAESNSSLDNIVKVNVFLADMKNFAEFNSVYAKHFHTHKPARSCVGVASLPLNVDLEMEVIAVEKN
- binding [1]: binds
- binding [2]: binds

B7: Homoaconitase, mitochondrial (protein, UniProt P49367 18-693)
chain: LKGQNLTEKIVQSYAVNLPEGKVVHSGDYVSIKPAHCMSHDNSWPVALKFMGLGATKIKNPSQIVTTLDHDIQNKSEKNLTKYKNIENFAKKHHIDHYPAGRGIGHQIMIEEGYAFPLNMTVASDSHSNTYGGLGSLGTPIVRTDAAAIWATGQTWWQIPPVAQVELKGQLPQGVSGKDIIVALCGLFNNDQVLNHAIEFTGDSLNALPIDHRLTIANMTTEWGALSGLFPVDKTLIDWYKNRLQKLGTNNHPRINPKTIRALEEKAKIPKADKDAHYAKKLIIDLATLTHYVSGPNSVKVSNTVQDLSQQDIKINKAYLVSCTNSRLSDLQSAADVVCPTGDLNKVNKVAPGVEFYVAAASSEIEADARKSGAWEKLLKAGCIPLPSGCGPCIGLGAGLLEPGEVGISATNRNFKGRMGSKDALAYLASPAVVAASAVLGKISSPAEVLSTSEIPFSGVKTEIIENPVVEEEVNAQTEAPKQSVEILEGFPREFSGELVLCDADNINTDGIYPGKYTYQDDVPKEKMAQVCMENYDAEFRTKVHPGDIVVSGFNFGTGSSREQAATALLAKGINLVVSGSFGNIFSRNSINNALLTLEIPALIKKLREKYQGAPKELTRRTGWFLKWDVADAKVVVTEGSLDGPVILEQKVGELGKNLQEIIVKGGLEGWVKSQL
- binding [1]: binds
- binding [2]: binds

B8: Enhancer of polycomb-like protein 1 (protein, UniProt P43572 1-832)
chain: MPTPSNAIEINDGSHKSGRSTRRSGSRSAHDDGLDSFSKGDSGAGASAGSSNSRFRHRKISVKQHLKIYLPNDLKHLDKDELQQREVVEIETGVEKNEEKEVHLHRILQMGSGHTKHKDYIPTPDASMTWNEYDKFYTGSFQETTSYIKFSATVEDCCGTNYNMDERDETFLNEQVNKGSSDILTEDEFEILCSSFEHAIHERQPFLSMDPESILSFEELKPTLIKSDMADFNLRNQLNHEINSHKTHFITQFDPVSQMNTRPLIQLIEKFGSKIYDYWRERKIEVNGYEIFPQLKFERPGEKEEIDPYVCFRRREVRHPRKTRRIDILNSQRLRALHQELKNAKDLALLVAKRENVSLNWINDELKIFDQRVKIKNLKRSLNISGEDDDLINHKRKRPTIVTVEQREAELRKAELKRAAAAAAAAKAKNNKRNNQLEDKSSRLTKQQQQQLLQQQQQQQQNALKTENGKQLANASSSSTSQPITSHVYVKLPSSKIPDIVLEDVDALLNSKEKNARKFVQEKMEKRKIEDADVFFNLTDDPFNPVFDMSLPKNFSTSNVPFASIASSKFQIDRSFYSSHLPEYLKGISDDIRIYDSNGRSRNKDNYNLDTKRIKKTELYDPFQENLEIHSREYPIKFRKRVGRSNIKYVDRMPNFTTSSTKSACSLMDFVDFDSIEKEQYSREGSNDTDSINVYDSKYDEFVRLYDKWKYDSPQNEYGIKFSDEPARLNQISNDTQVIRFGTMLGTKSYEQLREATIKYRRDYITRLKQKHIQHLQQQQQQQQQQQQQAQQQKQKSQNNNSNSSNSLKKLNDSLINSEAKQNSSITQKNSS
- binding [1]: binds
- binding [2]: binds

B9: Altered inheritance of mitochondria protein 6 (protein, UniProt Q07716 18-390)
chain: VCALFSSRGRNPSLTDWEKLKDQKISNIDNFGLTGQHLLEFFQENLPFLSFSEEKYRHKHVSLYYDVFKEYILRRASSKKCLPVDSAIAKLNKDVNPMPVHSHNDYWRKLPLFEGLAYGASSTEADVWNIDEKILAVGHNEAYLDPVELTLDKLYTGPLLEILDEVNCQDSDADRKNGVFFNSPETSLFFYIDFKSDDNELTYKLLMEQYFKSLIDSGYLTYYDMKKDEIIWRPVTVILTGNYPTSLDILDNGNDNGYFESSQRFAFLDAPLLSLEPKYSKLSVAATVSFSQLMKHCGSDHWKVSLRGRMDSNEISCAKSIIDGAHALKLKTRIWGAPTWPANLVETISRQIIHDLGSDLLNLDNLFMASSLI
- binding [1]: binds
- binding [2]: binds

B10: 2-isopropylmalate synthase (protein, UniProt P06208 1-619)
chain: MVKESIIALAEHAASRASRVIPPVKLAYKNMLKDPSSKYKPFNAPKLSNRKWPDNRITRAPRWLSTDLRDGNQSLPDPMSVEQKKEYFHKLVNIGFKEIEVSFPSASQTDFDFTRYAVENAPDDVSIQCLVQSREHLIKRTVEALTGAKKATIHTYLATSDMFREIVFNMSREEAISKAVEATKLVRKLTKDDPSQQATRWSYEFSPECFSDTPGEFAVEICEAVKKAWEPTEENPIIFNLPATVEVASPNVYADQIEYFATHITEREKVCISTHCHNDRGCGVAATELGMLAGADRVEGCLFGNGERTGNVDLVTVAMNMYTQGVSPNLDFSDLTSVLDVVERCNKIPVSQRAPYGGDLVVCAFSGSHQDAIKKGFNLQNKKRAQGETQWRIPYLPLDPKDIGRDYEAVIRVNSQSGKGGAAWVILRSLGLDLPRNMQIEFSSAVQDHADSLGRELKSDEISKLFKEAYNYNDEQYQAISLVNYNVEKFGTERRVFTGQVKVGDQIVDIEGTGNGPISSLVDALSNLLNVRFAVANYTEHSLGSGSSTQAASYIHLSYRRNADNEKAYKWGVGVSEDVGDSSVRAIFATINNIIHSGDVSIPSLAEVEGKNAAASGSA
- binding [1]: binds
- binding [2]: binds

The next lines start with the values.

- binding [1]: binds
- binding [2]: binds
B3: Pyruvate kinase 1 (protein, UniProt P00549 1-500)
chain: MSRLERLTSLNVVAGSDLRRTSIIGTIGPKTNNPETLVALRKAGLNIVRMNFSHGSYEYHKSVIDNARKSEELYPGRPLAIALDTKGPEIRTGTTTNDVDYPIPPNHEMIFTTDDKYAKACDDKIMYVDYKNITKVISAGRIIYVDDGVLSFQVLEVVDDKTLKVKALNAGKICSHKGVNLPGTDVDLPALSEKDKEDLRFGVKNGVHMVFASFIRTANDVLTIREVLGEQGKDVKIIVKIENQQGVNNFDEILKVTDGVMVARGDLGIEIPAPEVLAVQKKLIAKSNLAGKPVICATQMLESMTYNPRPTRAEVSDVGNAILDGADCVMLSGETAKGNYPINAVTTMAETAVIAEQAIAYLPNYDDMRNCTPKPTSTTETVAASAVAAVFEQKAKAIIVLSTSGTTPRLVSKYRPNCPIILVTRCPRAARFSHLYRGVFPFVFEKEPVSDWTDDVEARINFGIEKAKEFGILKKGDTYVSIQGFKAGAGHSNTLQVSTV

- binding [1]: binds
- binding [2]: binds
B4: Serine hydroxymethyltransferase, mitochondrial (protein, UniProt P37292 21-490)
chain: LTSGAQSLVSKPVSEGDPEMFDILQQERHRQKHSITLIPSENFTSKAVMDLLGSELQNKYSEGYPGERYYGGNEIIDKSESLCQARALELYGLDPAKWGVNVQPLSGAPANLYVYSAIMNVGERLMGLDLPDGGHLSHGYQLKSGTPISFISKYFQSMPYHVDHTTGLIDYDNLQVLAKAFRPKVIVAGTSAYSRLIDYARFKEISQGCGAYLMSDMAHISGLVAANVVPSPFEHSDIVTTTTHKSLRGPRGAMIFFRKGIKSVTKKGKEIPYELEKKINFSVFPGHQGGPHNHTIGAMAVALKQAMSPEFKEYQQKIVDNSKWFAQELTKMGYKLVSGGTDNHLIVIDLSGTQVDGARVETILSALNIAANKNTIPGDKSALFPSGLRIGTPAMTTRGFGREEFSQVAKYIDSAVKLAENLKTLEPTTKLDARSRLNEFKKLCNESSEVAALSGEISKWVGQYPVPGDI

- binding [1]: binds
- binding [2]: binds
B6: Uncharacterized protein YGR266W (protein, UniProt P53326 1-701)
chain: MHATNWFDDWNPEALYRDDVTGCDDCSETSPIPKSGIICGPILRLINMDFKEKTYEGSIMVVVRGEENFPKITYQLGPSLPSEDEDIEVNEAFFEGKLFHKDILKDDNIWFYRYEIKLPMSNYEQMVKYAVDGTMEPHYRFFVPSFTQNSNVISYSCNGFSLSVDTSKFKGSLWYDVLKKHRYVHYHAILGGGDQIYSDNIKLHAPNLKAWLETKDPIKKYNTQTTEETKEQIRQFYLEHYLNWYGYGHWYGSTPKSKTTQKCFVKSLACIPAINVWDDHDIIDGYGSYNDSFMKTENFLTVGRMAYRYYMLFQQHVSASKQDGDEYAYLKSKQWILGNEKGSSYIGERSHSIFSWLGPKMAMLGLDCRTERKLHEIFSERSYSLIWERVEREIKNLKGGHLLLMLGIPIAYPRLVWLEWLFTSKLLAPIKYLSKKGIFASGFVNEFNGDVELLDDLNDHWCARHHKKERNYLIMKLQDIGAKYGVRITILSGDVHLASVGRFRAKIHRHHLIMSEEKEKENTRIIEEPTKDVRLIFNIIASAIVNTPPPDAMATLLQKRCRLHHFDLETDEDAVPIFAKEVDGVHKRKESCFMNKRNWSDIIPIENLLNNPQLSKELGVKVGDIVIPGIITEQQKLQKLENDDQINSYPVTSGGLFTTIHVERDANQTNSQTVSYCLPIPELTVTCERLSHKGIKHLNIT
